No constants are given. Whether binding was seen depends on the method and setting. Some entries that bind do so weakly or less than the wild type.
Key:
[1] = biological target: recombinant human D-dopachrome tautomerase (human) (UniProt P30046); experiment: ELISA; 'a similar ELISA set up' to the ACKR3 ELISA, for CXCR4; details in Supplemental data file 1 Fig. 5; only the target purified
[2] = biological target: T1, recombinant human macrophage migration inhibitory factor (human) (UniProt P14174); experiment: ELISA; plates coated with rhDDT (1 µM, 100 nM, 10 nM) or rhMIF (1 uM) in 0.1M NaHCO3 pH 8.6 overnight at 4 °C, blocked with 2% BSA; HeLa cell lysate added at 4°C for 20 min; detected with an antibody against ACKR3; only the target purified
T1 sequence: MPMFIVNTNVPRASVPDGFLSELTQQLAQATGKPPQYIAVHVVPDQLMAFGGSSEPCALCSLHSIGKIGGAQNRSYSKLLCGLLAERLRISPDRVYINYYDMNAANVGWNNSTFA

Sequences of proteins named here, by UniProt entry; tags and fusion partners are left off.
UniProt P30046: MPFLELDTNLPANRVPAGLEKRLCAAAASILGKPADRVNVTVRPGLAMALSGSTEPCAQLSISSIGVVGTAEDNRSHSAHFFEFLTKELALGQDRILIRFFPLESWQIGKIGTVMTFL
UniProt P61073: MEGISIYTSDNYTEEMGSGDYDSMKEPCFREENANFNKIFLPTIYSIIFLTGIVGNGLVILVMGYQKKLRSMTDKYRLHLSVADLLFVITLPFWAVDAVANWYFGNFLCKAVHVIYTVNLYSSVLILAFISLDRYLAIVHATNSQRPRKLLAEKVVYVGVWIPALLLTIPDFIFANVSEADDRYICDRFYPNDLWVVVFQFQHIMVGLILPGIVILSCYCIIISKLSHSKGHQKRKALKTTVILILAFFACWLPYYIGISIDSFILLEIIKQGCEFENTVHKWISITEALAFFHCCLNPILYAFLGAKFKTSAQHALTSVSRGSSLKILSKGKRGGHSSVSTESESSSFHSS
UniProt P25106: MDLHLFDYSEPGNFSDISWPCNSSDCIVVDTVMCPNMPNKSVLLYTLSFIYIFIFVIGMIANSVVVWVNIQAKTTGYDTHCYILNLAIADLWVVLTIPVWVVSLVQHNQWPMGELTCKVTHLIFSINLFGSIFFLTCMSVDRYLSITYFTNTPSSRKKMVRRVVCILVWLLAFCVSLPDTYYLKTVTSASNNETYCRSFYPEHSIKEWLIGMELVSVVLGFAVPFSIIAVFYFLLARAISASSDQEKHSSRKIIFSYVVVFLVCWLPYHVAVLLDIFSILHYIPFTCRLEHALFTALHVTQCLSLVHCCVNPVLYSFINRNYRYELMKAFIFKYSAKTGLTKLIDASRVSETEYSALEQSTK

[3] = biological target: recombinant human D-dopachrome tautomerase (human) (UniProt P30046); experiment: as above

binding [1]	binding [2]	binding [3]	Substance
no binding	–	–	C-X-C chemokine receptor 4 (from UniProt P61073 1-352)
–	binds	binds	atypical chemokine receptor 3 (HeLa cell lysate) (from UniProt P25106 1-362)
